{"source": "patent US20080311681A1", "about": "“Antibody Binding Affinity Ligands” (priority 2004, published 2008)", "test_system": "monoclonal antibody", "test": "Chromatographic evaluation of ligands coupled on Fractogel (packed column, load, wash, elution, regeneration)", "type": "binding", "method": "The new resins were assessed in packed mode. 1 mL of each resin was packed into an HR5 chromatography column (GE Healthcare) applying standard conditions.\nBefore loading the matrix with the monoclonal antibody, the column was equilibrated with 6 column volumes equilibration buffer containing 50 mM Na-phosphate (pH 7.0; cond. 9 mS cm^−1). After equilibration a monoclonal antibody solution in equilibration buffer (protein conc. 1.14 mg/mL) was loaded to the column. Subsequently, the column was washed with 6 column volumes of equilibration buffer and eluted with 6 column volumes of elution buffer 1 (25 mM sodium acetate pH 5.5; cond. 1.8 mS cm^−1) and 6 column volumes of elution buffer 2 (25 mM sodium acetate buffer pH 3.8; 0.5 mS cm^−1). The column was stored in […] ethanol. Afterwards, the matrix was regenerated with 40 mM phosphoric acid and 20 mM sodium hydroxid. The flow rate for equilibration, load and wash was 60 cm/h, elution and regeneration was performed at a flow rate of 30 cm/h.", "key": {"[1]": {"settings": "process step Elution 1, 25 mM sodium acetate pH 5.5"}, "[2]": {"settings": "process step Elution 2, 25 mM sodium acetate buffer pH 3.8"}, "[3]": {"settings": "process step Flow trough, ligand coupled on Fractogel"}, "[4]": {"settings": "process step Wash, equilibration buffer pH 7.0"}}, "data": [{"substance": "D-Phe-(L)Arg-(L)Arg-Gly [LI#16]", "values": [{"measurement": "Step yield [%]", "setting": "[1]", "value": 73.4, "unit": "%"}, {"measurement": "mAb content [mg/mL]", "setting": "[1]", "value": 1.13, "unit": "mg/mL"}, {"measurement": "mAb content [mg]", "setting": "[1]", "value": 5.65, "unit": "mg"}, {"measurement": "Step yield [%]", "setting": "[2]", "value": 20.5, "unit": "%"}, {"measurement": "mAb content [mg/mL]", "setting": "[2]", "value": 0.35, "unit": "mg/mL"}, {"measurement": "mAb content [mg]", "setting": "[2]", "value": 1.58, "unit": "mg"}, {"measurement": "Step yield [%]", "setting": "[3]", "value": 0.9, "unit": "%"}, {"measurement": "mAb content [mg/mL]", "setting": "[3]", "value": 0.01, "unit": "mg/mL"}, {"measurement": "mAb content [mg]", "setting": "[3]", "value": 0.07, "unit": "mg"}, {"measurement": "Step yield [%]", "setting": "process step Regeneration", "value": 2.1, "unit": "%"}, {"measurement": "mAb content [mg/mL]", "setting": "process step Regeneration", "value": 0.11, "unit": "mg/mL"}, {"measurement": "mAb content [mg]", "setting": "process step Regeneration", "value": 0.17, "unit": "mg"}, {"measurement": "Step yield [%]", "setting": "[4]", "value": 0.0, "unit": "%"}, {"measurement": "mAb content [mg/mL]", "setting": "[4]", "value": 0.00, "unit": "mg/mL"}, {"measurement": "mAb content [mg]", "setting": "[4]", "value": 0.00, "unit": "mg"}]}, {"substance": "DBHBA-(L)Asn-(L)Arg-Gly [LII#55]", "values": [{"measurement": "Step yield [%]", "setting": "[1]", "value": 11.8, "unit": "%"}, {"measurement": "mAb content [mg/mL]", "setting": "[1]", "value": 0.19, "unit": "mg/mL"}, {"measurement": "mAb content [mg]", "setting": "[1]", "value": 0.86, "unit": "mg"}, {"measurement": "Step yield [%]", "setting": "[2]", "value": 57.9, "unit": "%"}, {"measurement": "mAb content [mg/mL]", "setting": "[2]", "value": 1.05, "unit": "mg/mL"}, {"measurement": "mAb content [mg]", "setting": "[2]", "value": 4.2, "unit": "mg"}, {"measurement": "Step yield [%]", "setting": "[3]", "value": 17.0, "unit": "%"}, {"measurement": "mAb content [mg/mL]", "setting": "[3]", "value": 0.19, "unit": "mg/mL"}, {"measurement": "mAb content [mg]", "setting": "[3]", "value": 1.24, "unit": "mg"}, {"measurement": "Step yield [%]", "setting": "process step Regeneration", "value": 10.1, "unit": "%"}, {"measurement": "mAb content [mg/mL]", "setting": "process step Regeneration", "value": 0.49, "unit": "mg/mL"}, {"measurement": "mAb content [mg]", "setting": "process step Regeneration", "value": 0.74, "unit": "mg"}, {"measurement": "Step yield [%]", "setting": "[4]", "value": 1.20, "unit": "%"}, {"measurement": "mAb content [mg/mL]", "setting": "[4]", "value": 0.02, "unit": "mg/mL"}, {"measurement": "mAb content [mg]", "setting": "[4]", "value": 0.09, "unit": "mg"}]}]}
